These are yes or no findings as the source states them, for the method shown. In cells and extracts the contact can be indirect. Some results given as binding are weak or reduced against the parent protein; the word gives no strength.
Molecular target: Transmembrane protein 18 (TMEM18), Flag-tagged or HA-tagged (UniProt Q96B42)
Assay: co-IP; 293T cells co-transfected with TMEM18-Flag and an HA-tagged TMEM18 construct; extracts in RIPA buffer, anti-FLAG M2 affinity gel, 4°C, one hour; washed with RIPA buffer plus 200 mM NaCl; blot probed with anti-HA antibody

Protein sequences, listed by entry. Tags and fused reporters are not part of them. Lines headed by an entry give the natural chain unless they say otherwise; changes in a name come on top. Chains listed by the source or under a name are the forms on record and can include a tag or linker.
UniProt Q96B42: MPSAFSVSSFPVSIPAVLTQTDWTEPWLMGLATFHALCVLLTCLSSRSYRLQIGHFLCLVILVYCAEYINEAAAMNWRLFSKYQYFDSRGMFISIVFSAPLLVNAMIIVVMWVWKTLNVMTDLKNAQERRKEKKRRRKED
TMEM18C→A (TMEM18 with all four cysteines mutated into alanines) (Q96B42, form named): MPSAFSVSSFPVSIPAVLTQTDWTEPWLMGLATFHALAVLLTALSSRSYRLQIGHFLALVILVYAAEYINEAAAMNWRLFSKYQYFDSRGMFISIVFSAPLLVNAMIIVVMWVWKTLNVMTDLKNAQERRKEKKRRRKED

Row | Substance | binding
1 | Transmembrane protein 18 (TMEM18), Flag-tagged or HA-tagged (from UniProt Q96B42 1-140) | binds
2 | TMEM18ΔC (C-terminal deleted TMEM18, lacks the last 13 C-terminal amino acids) (from UniProt Q96B42 1-127) (domain or fragment) | binds
3 | TMEM18C→A (TMEM18 with all four cysteines mutated into alanines) (from UniProt Q96B42 1-140) | binds

— article PMC3182218
